Tests used:
[1] = tested on: Trych. Mentagr. 1st.Pastuer; assay: MIC mildews, Trichophyton mentagrophytes (Table 2); assay type: cell-based; details: Sabourand broth
Protocol: (§1) The method for evaluating the activity in vitro against bacteria, fungi and protozoa consists in introducing calculated quantities of the substance, the activity of which it is desired to test, into culture media already inoculated with a predetermined number of test germs.
(§2) After 24 or 48 hours of incubation at 30° or 37° C., according to the micro-organism being tested, it is possible to evaluate the growth of the same in the culture broth; in this manner the minimum concentration (M.I.C.) which inhibits the growth of the micro-organisms in vitro is determined.
In order to confirm the wide spectrum of action of the compounds in question, their activity was also assessed against fungi (both mildews and yeasts) and protozoa, in this case also taking cetyl pyridine chloride as the standard substance.
(§3) Inoculation with Trichophyton mentagrophytes and Microsporum canis was effected in a ratio of 1% of the volume of medium used.
For the fungi Sabourand broth was used as a culture medium, whilst for the protozoa Kupferberg Trichomonas broth with 5% of horse serum was used. The results (MIC values in γ/ml) are recorded in Table 2.

[2] = tested on: Nicrosporum Canis ATCC 11621; assay: MIC mildews, Microsporum canis (Table 2); assay type: cell-based; details: Sabourand broth
Protocol: as §1, §2, §3
(§4) For the fungi Sabourand broth was used as a culture medium, whilst for the protozoa Kupferberg Trichomonas broth with 5% of horse serum was used.

Candida Albic. SKF 2270 = assay: MIC yeasts, Candida albicans (Table 2); assay type: cell-based; details: Sabourand broth
Protocol: as §1, §2
(§5) Inoculation with Candida albicans or Candida pseudotropicalis was made by diluting cultures grown for 24 h at 30° C. (cellular density inoculated 10^3 /ml).
as §4

[3] = tested on: Candida Pseudotrop. ATCC 2512; assay: MIC yeasts, Candida pseudotropicalis (Table 2); assay type: cell-based; details: Sabourand broth
Protocol: as §1, §2, §5, §4

[4] = tested on: Trich. Vaginalis ISM 66/22; assay: MIC protozoa, Trichomonas vaginalis (Table 2); assay type: cell-based
Protocol: as §1, §2
(§6) Inoculation with Trichomonas vaginalis and Trichomonas foetus, obtained from cultures transplanted every other day to make them lively, was effected in a ratio of 3.5% of the volume of medium used.
as §4

Trich. Foetus ISM 66/23 = assay: MIC protozoa, Trichomonas foetus (Table 2); assay type: cell-based; details: Tritrichomonas foetus
Protocol: as §1, §2, §6, §4

Candida albicans = assay: Activity upon vaginal candidiasis in mice (Table 7); assay type: in vivo, female Swiss mice (Charles River CD1); details: 3% by weight
Protocol: The treatment groups consist each of 8 female Swiss mice (Charles River CD1) of average weight 20 g. The animals are infected with 0.025 ml of a 24 hour culture of Candida albicans, equal to 10^6 cellules.
0.025 ml of a suspension in lanoline of the compound to be tested, at the desired concentration, are applied locally twice a day for a week, the first treatment being started five hours after infection.
The control group is treated with the lanoline alone in the same way. On the eighth day vaginal washings are carried out with 0.025 ml of sterile physiological solution, and the liquid is sown in Petri dishes containing Bacto Biggy Agon Difco as a selective growing medium for the Candida.
After 48 hours of incubation of the dishes at 30° C. a count is taken of the colonies which have grown. Assessment of the activity is quantized using the indices listed here below:
The results are expressed as percentages of the average index of seriousness of the infection A.D.I. (Average Degree of Infection) in the animals treated with respect to the animals in the control group.
The substances under examination were tested at concentrations of 5 and 3% by weight.

CCCCCCCCCCCCCCCC[n+]1ccccc1 [Cetyl pyridine chloride, cetyl pyridine chloride, reference compound]
MIC ([1]; +10% serum): 30 µg/mL | MIC ([1]; without serum): 0.5 µg/mL | MIC ([2]; ATCC11621, +10% serum): 50 µg/mL | MIC ([2]; ATCC11621, without serum): 0.5 µg/mL | MIC (Candida Albic. SKF 2270; +10% serum): 100 µg/mL | MIC (Candida Albic. SKF 2270; without serum): 5 µg/mL | MIC ([3]; ATCC2512, +10% serum): 100 µg/mL | MIC ([3]; ATCC2512, without serum): 0.5 µg/mL | MIC [4]: 10 µg/mL | MIC (Trich. Foetus ISM 66/23): 5 µg/mL | average proliferation index (A.D.I) (Candida albicans): 2.00
